Experimental data as given in US12703885B2, “Method for predicting the response to CDK4/6 inhibitor therapy in cancer patients” (GBG FORSCHUNGS GMBH, priority 2021, dated 2026).
At least one structure is not confirmed: it was looked up by name or label, or the drawing left a doubt.

Tested on: HR+, HER2− eBC at high risk of recurrence
Assay: PENELOPE-B randomized, double-blind, placebo-controlled Phase 3 study; Cox regression for endpoint iDFS
Type: in vivo, human
Details: for Kaplan-Meier events by arm (FIG. 2, in words): 782 patients
From the text: The data underlying the present invention were obtained in the context of the PENELOPE^B study (NCT01864746). PENELOPE^B is a randomized, double-blind, placebo-controlled Phase 3 study comparing one year of palbociclib plus at least five years of standard adjuvant endocrine therapy to placebo plus at least five years of standard adjuvant endocrine therapy in 1,250 women with HR+, HER2− eBC at high risk of recurrence who have residual invasive disease after completing neoadjuvant chemotherapy. Patients in the trial scored 3 or higher (or 2 if there were lymph node metastases at the time of surgery) on the clinical-pathologic stage—estrogen/grade (CPS-EG). The CPS-EG is a validated risk assessment tool combining: clinical stage before neoadjuvant treatment, pathological stage after neoadjuvant treatment, grading and estrogen-receptor status. More than 190 clinical sites in 12 countries around the globe participated in PENELOPE-B. The study opened in November 2013 and closed recruitment on Dec. 31, 2017. RNA was extracted from post-surgical residual tumor tissue of patients from the Penelope^B study (GBG 78) and quantified using the HTG EdgeSeq Oncology Biomarker Panel (HTG Molecular Diagnostics Inc.) resulting in a so-called count value for each of the 2559 genes in the assay. Quality control measures were performed as described by the manufacturer. For 906 patients HTG measurements were successfully performed and passed said quality controls. For each gene of the HTG assay a bivariate Cox regression model was created to examine the interaction between gene expression and treatment arm with respect to endpoint iDFS. Each regression model was calculated based on 906 patients from the Penelope^B study. Independent terms were the normalized continuous gene expression value, the treatment arm as a binary variable and their interaction. […] Criteria were the said p-value for interaction and biological properties such as function and pathways. Variable score3 can further be dichotomized into a binary variable score3dich, where the median in the Penelope study population is used as cutoff. […] The 20 genes with smallest p-values for the interaction were selected. • 2) For each gene from step 1) the technical eligibility for measurement was evaluated. […] In the cohort of 782 patients the gene expression value was adjusted to the lower limit for between 0 and 16 patients, and to the upper limit for between 0 and 8 patients. • 4) The correlation between genes was analyzed by hierarchical clustering and analysis of the Pearson correlation coefficient matrix based on graphical methods. […]

Compound: CC(=O)c1c(C)c2cnc(Nc3ccc(N4CCNCC4)cn3)nc2n(C2CCCC2)c1=O [palbociclib]
- Kaplan-Meier events by arm (FIG. 2, in words) (patients with high Signature 1 score): fewer events in the palbociclib arm
- iDFS with palbociclib compared to placebo (in words) (patients with high dichotomized score3): significant benefit
- Kaplan-Meier events by arm (FIG. 2, in words) (patients with low (below median) Signature 1 score): fewer events in the placebo arm
- iDFS with palbociclib compared to placebo (in words) (patients with low dichotomized score3): worse iDFS
